Source: the supplement of paper PMC10849652
The other results are listed elsewhere or left out.

By UniProt entry, the sequences of proteins in these tests, tags left out. Where a name states a change or a piece, a line headed by the entry shows the natural chain unless it says otherwise.
UniProt Q96A49: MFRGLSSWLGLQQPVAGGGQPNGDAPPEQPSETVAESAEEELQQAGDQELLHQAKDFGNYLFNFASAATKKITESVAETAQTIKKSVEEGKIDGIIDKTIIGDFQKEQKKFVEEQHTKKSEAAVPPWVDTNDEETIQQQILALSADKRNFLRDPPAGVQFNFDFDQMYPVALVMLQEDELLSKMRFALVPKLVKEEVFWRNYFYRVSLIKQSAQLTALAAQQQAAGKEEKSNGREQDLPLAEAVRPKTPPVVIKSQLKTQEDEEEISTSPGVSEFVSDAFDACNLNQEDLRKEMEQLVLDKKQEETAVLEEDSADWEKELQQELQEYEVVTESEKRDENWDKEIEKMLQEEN
UniProt O14662: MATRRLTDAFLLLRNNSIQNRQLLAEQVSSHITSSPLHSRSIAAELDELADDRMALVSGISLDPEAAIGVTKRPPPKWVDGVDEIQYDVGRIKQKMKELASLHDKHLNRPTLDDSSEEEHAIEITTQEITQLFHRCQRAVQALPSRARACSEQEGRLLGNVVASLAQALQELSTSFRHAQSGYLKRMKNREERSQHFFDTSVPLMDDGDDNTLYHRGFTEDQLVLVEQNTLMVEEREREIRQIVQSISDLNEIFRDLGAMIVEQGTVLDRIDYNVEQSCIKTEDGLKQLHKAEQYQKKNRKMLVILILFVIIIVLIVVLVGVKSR
UniProt Q9P246, whole entry, looked up: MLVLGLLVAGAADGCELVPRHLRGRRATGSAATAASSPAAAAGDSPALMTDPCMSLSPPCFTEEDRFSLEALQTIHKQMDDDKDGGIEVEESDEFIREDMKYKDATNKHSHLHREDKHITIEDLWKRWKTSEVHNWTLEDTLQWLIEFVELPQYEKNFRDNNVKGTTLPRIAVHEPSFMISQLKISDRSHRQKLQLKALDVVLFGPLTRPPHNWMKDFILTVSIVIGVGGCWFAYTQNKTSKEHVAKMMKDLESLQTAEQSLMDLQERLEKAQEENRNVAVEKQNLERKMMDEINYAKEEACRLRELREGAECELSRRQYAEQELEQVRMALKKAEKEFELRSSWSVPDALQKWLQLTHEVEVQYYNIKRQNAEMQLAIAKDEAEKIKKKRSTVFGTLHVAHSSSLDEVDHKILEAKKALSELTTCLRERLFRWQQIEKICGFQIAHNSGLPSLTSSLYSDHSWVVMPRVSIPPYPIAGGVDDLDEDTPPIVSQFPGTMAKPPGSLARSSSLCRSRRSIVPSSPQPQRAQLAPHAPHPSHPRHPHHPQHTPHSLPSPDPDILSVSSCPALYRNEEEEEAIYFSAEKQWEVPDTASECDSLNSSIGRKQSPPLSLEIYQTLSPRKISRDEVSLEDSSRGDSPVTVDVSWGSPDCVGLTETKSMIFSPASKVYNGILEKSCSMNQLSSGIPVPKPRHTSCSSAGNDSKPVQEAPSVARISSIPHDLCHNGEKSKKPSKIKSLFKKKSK
UniProt O95926: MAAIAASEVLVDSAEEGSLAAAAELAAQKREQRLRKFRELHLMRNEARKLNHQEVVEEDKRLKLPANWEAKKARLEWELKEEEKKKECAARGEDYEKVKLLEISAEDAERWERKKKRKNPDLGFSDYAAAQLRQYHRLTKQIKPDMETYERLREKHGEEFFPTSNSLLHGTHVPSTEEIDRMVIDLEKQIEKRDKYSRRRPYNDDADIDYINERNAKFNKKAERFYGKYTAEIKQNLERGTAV
UniProt O75529: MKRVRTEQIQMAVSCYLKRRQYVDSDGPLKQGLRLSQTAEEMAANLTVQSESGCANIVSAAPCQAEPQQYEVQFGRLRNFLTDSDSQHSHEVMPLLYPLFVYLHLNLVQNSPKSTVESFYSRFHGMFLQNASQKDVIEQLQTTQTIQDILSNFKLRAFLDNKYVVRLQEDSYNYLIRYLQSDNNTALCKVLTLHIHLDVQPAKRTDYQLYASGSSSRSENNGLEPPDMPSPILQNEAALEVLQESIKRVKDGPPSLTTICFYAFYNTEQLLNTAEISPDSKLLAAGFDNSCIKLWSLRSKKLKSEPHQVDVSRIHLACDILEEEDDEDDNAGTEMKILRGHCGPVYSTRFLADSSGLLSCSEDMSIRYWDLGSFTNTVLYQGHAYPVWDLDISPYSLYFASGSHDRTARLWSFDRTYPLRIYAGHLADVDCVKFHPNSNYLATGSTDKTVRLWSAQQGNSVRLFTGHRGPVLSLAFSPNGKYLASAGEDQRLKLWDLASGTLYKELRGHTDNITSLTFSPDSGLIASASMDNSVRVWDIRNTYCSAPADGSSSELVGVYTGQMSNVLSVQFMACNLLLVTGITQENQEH
UniProt Q13190: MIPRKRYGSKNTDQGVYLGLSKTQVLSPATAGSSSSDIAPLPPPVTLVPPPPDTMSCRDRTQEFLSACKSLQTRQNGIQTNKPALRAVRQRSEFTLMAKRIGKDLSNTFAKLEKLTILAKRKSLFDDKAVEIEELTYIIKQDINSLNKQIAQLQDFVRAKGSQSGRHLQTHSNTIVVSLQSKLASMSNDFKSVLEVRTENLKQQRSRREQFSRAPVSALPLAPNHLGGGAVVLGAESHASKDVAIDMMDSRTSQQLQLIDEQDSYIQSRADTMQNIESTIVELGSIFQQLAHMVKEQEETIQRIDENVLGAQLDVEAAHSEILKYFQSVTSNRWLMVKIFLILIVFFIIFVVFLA
UniProt P61764, whole entry, looked up: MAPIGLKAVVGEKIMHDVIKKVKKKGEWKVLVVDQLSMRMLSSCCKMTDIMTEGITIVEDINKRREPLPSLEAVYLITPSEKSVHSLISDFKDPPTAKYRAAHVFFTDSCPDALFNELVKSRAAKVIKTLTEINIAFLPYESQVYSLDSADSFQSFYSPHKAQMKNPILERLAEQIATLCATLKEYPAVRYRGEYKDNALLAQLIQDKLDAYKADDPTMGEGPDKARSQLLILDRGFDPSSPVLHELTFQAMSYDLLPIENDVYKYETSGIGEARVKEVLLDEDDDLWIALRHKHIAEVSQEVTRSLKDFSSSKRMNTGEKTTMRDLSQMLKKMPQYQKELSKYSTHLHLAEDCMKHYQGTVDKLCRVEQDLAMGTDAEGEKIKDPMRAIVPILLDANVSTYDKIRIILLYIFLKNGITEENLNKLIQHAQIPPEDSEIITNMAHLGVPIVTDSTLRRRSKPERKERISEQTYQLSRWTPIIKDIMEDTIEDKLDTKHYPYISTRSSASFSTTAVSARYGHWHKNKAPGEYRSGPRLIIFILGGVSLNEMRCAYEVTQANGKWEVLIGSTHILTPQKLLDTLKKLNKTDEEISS
UniProt Q9Y5B9, whole entry, looked up: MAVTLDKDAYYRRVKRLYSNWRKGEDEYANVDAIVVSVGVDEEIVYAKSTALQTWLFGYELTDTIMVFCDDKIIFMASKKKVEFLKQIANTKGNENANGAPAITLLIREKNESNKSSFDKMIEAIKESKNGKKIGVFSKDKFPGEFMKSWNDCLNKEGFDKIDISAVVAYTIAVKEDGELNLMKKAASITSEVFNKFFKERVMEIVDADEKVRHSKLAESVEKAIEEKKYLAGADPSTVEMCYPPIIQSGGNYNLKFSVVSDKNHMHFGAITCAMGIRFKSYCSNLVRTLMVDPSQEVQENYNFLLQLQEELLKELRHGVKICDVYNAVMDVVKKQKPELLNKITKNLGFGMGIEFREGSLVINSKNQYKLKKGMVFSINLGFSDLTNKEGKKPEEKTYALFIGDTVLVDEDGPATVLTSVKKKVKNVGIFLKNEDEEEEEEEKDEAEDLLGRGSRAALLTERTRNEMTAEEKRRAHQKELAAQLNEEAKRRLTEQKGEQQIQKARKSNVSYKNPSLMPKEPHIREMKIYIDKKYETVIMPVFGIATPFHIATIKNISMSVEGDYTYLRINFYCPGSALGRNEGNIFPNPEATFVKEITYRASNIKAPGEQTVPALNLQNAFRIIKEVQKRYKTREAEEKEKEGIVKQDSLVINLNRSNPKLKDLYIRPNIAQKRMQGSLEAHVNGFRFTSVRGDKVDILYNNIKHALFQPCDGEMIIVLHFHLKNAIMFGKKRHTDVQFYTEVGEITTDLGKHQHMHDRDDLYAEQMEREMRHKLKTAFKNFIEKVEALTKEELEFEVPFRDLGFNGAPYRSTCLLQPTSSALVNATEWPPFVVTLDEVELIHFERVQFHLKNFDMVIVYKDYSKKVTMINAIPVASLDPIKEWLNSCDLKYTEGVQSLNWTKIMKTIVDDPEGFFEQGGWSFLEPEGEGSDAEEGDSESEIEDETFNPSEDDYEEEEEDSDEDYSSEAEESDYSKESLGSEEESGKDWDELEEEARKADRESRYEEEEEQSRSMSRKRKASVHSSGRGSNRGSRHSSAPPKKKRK
UniProt Q86TM6, whole entry, looked up: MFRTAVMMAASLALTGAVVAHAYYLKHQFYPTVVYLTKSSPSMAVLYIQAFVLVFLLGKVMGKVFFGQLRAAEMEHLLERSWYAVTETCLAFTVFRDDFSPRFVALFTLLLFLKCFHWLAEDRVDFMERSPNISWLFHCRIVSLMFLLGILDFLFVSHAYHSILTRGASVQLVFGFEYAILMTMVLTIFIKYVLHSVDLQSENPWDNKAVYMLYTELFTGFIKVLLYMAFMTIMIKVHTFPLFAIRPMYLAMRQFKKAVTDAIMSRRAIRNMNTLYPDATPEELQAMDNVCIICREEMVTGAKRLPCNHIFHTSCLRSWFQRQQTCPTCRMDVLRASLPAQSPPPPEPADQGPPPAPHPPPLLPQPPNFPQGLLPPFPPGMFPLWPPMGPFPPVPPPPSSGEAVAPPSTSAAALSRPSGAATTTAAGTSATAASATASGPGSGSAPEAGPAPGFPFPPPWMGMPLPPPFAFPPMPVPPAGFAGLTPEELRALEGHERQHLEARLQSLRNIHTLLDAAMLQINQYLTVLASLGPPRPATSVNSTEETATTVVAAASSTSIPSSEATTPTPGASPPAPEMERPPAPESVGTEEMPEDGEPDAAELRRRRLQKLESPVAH
UniProt Q9H7L9: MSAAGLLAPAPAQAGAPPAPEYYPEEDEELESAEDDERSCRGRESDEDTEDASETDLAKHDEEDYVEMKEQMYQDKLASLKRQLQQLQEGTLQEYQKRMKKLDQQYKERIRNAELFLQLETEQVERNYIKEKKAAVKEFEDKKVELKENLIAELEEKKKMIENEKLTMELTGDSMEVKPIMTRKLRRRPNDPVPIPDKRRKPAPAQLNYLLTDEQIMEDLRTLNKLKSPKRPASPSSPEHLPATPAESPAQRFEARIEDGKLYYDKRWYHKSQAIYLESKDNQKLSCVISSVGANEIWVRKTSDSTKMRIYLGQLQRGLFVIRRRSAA
UniProt Q15833: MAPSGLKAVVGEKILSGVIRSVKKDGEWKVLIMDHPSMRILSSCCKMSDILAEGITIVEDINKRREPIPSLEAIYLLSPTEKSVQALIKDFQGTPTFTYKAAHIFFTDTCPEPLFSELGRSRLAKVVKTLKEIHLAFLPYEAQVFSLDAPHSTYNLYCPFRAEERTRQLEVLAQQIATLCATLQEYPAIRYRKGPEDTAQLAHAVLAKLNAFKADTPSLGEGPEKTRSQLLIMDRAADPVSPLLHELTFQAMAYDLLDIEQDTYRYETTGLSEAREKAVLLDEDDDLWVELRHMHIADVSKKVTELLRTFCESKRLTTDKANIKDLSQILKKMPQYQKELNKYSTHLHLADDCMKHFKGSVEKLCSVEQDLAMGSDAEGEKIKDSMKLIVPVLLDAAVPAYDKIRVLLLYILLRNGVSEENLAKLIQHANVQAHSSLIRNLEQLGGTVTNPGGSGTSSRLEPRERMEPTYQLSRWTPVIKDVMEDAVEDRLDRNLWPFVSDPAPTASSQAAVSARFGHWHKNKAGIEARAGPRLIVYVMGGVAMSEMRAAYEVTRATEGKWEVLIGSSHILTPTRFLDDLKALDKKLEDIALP
UniProt P0DMM9: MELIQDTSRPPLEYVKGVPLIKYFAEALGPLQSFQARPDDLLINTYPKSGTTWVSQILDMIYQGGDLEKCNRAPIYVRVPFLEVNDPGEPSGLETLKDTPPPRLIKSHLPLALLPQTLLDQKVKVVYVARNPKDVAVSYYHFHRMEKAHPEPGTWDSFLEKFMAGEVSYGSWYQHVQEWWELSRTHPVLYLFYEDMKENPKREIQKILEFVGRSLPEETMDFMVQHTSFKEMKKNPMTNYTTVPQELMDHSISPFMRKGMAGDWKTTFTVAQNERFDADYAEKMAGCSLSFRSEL
UniProt Q8NFX7: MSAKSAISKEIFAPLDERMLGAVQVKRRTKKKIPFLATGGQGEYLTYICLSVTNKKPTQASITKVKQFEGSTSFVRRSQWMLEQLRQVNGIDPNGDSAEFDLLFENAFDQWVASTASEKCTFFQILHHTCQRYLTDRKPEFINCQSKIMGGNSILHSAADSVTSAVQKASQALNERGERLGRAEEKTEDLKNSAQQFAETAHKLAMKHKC

Legend:
Test in all cases: log2 fold change, soluble protein after heating vs DMSO (PISA); higher = thermal stabilisation; K562 lysate, 10 uM; active = over 0.2 and 3.5 SD of the protein, either way, in both replicates (recomputed)
nilotinib = compound: Cc1cn(-c2cc(NC(=O)c3ccc(C)c(Nc4nccc(-c5cccnc5)n4)c3)cc(C(F)(F)F)c2)cn1 [nilotinib]
Procedure, shortened: (§1)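 Soluble protein was defined as the supernatant remaining after 21,000xg for 90 min, following pooling of heated aliquots and adjustment to 0.5% NP-40 at 4°C. Before that, crude K562 extract at 1 mg/mL protein in PBS pH 7.4 with 1 mM MgCl2 was treated with 10 μM compound for 30 min and heated for 3 min across 48°C-58°C. Quantification used TMTpro 16plex LC-MS/MS with channel sums equalised, and values are log-two fold changes in thermal stability relative to solvent controls from duplicates.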

[1] = compound: Cc1nc(Nc2n[nH]c3c2CN(C(=O)N[C@H](CN(C)C)c2ccccc2)C3(C)C)c2sccc2n1
Procedure, shortened: as §1

dasatinib = compound: Cc1nc(Nc2ncc(C(=O)Nc3c(C)cccc3Cl)s2)cc(N2CCN(CCO)CC2)n1 [dasatinib]
Procedure, shortened: as §1

[2] = compound: Cc1ncc(-c2ccnc(Nc3ccc(S(C)(=O)=O)cc3)n2)n1C(C)C
Procedure, shortened: as §1

[3] = compound: Cn1cc(-c2ccc3c(c2)CCN3C(=O)Cc2cccc(C(F)(F)F)c2)c2c(N)ncnc21
Procedure, shortened: as §1

quisinostat = compound: Cn1cc(CNCC2CCN(c3ncc(C(=O)NO)cn3)CC2)c2ccccc21 [quisinostat]
Procedure, shortened: as §1

tipifarnib = compound: Cn1cncc1[C@@](N)(c1ccc(Cl)cc1)c1ccc2c(c1)c(-c1cccc(Cl)c1)cc(=O)n2C [tipifarnib]
Procedure, shortened: as §1

[4] = compound: NC(=O)Nc1cc(-c2cccc(F)c2)sc1C(=O)N[C@H]1CCCNC1
Procedure, shortened: as §1

[5] = compound: NC(=O)c1cnc(N[C@@H]2CCCC[C@@H]2N)nc1Nc1cccc(-n2nccn2)c1
Procedure, shortened: as §1

[6] = compound: NC1(c2ccc(-c3nc4ccn5c(=O)[nH]nc5c4cc3-c3ccccc3)cc2)CCC1
Procedure, shortened: as §1

[7] = compound: NCC(=O)Nc1ccc(-n2nc(C(F)(F)F)cc2-c2ccc3c(ccc4ccccc43)c2)cc1
Procedure, shortened: as §1

vorinostat = compound: O=C(CCCCCCC(=O)Nc1ccccc1)NO [vorinostat]
Procedure, shortened: as §1

silmitasertib = compound: O=C(O)c1ccc2c(c1)nc(Nc1cccc(Cl)c1)c1ccncc12 [silmitasertib]
Procedure, shortened: as §1

[8] = compound: O=C1NC(=O)C(c2cnc3ccccn23)=C1c1cn2c3c(cc(F)cc13)CN(C(=O)N1CCCCC1)CC2
Procedure, shortened: as §1

entospletinib = compound: c1cn2cc(-c3ccc4cn[nH]c4c3)nc(Nc3ccc(N4CCOCC4)cc3)c2n1 [entospletinib]
Procedure, shortened: as §1

Row | Target | log2 fold change (nilotinib) | log2 fold change [1] | log2 fold change (dasatinib) | log2 fold change [2] | log2 fold change [3] | log2 fold change (quisinostat) | log2 fold change (tipifarnib) | log2 fold change [4] | log2 fold change [5] | log2 fold change [6] | log2 fold change [7] | log2 fold change (vorinostat) | log2 fold change (silmitasertib) | log2 fold change [8] | log2 fold change (entospletinib)
1 | SYAP1 (UniProt Q96A49) | inactive: 0.089 | inactive: 0.013 | inactive: 0.059 | inactive: 0.012 | inactive: -0.07 | inactive: 0.045 | inactive: -0.085 | inactive: -0.086 | inactive: -0.039 | inactive: 0.052 | inactive: -0.036 | inactive: 0.234 | inactive: -0.07 | inactive: -0.05 | inactive: 0.022
2 | STX16 isoform 2 (UniProt O14662) | inactive: 0.019 | inactive: -0.037 | inactive: -0.048 | inactive: -0.039 | inactive: -0.012 | inactive: 0.068 | inactive: -0.01 | inactive: -0.016 | inactive: 0.041 | inactive: 0.041 | inactive: -0.018 | inactive: -0.115 | inactive: -0.041 | inactive: -0.019 | inactive: -0.016
3 | STIM2 isoform 2 (UniProt Q9P246) | inactive: 0.036 | inactive: -0.045 | inactive: 0.176 | inactive: -0.122 | inactive: 0.032 | inactive: 0.051 | inactive: -0.051 | inactive: -0.077 | inactive: -0.07 | inactive: 0.078 |  | inactive: -0.022 | inactive: -0.069 | inactive: -0.064 | inactive: 0.058
4 | STK26 (UniProt Q9P289) | inactive: -0.033 | active: 0.25 | inactive: 0.102 | inactive: 0.044 | inactive: 0.029 | inactive: -0.035 | inactive: -0.013 | inactive: 0.104 | inactive: 0.002 | inactive: -0.008 | inactive: -0.027 | inactive: -0.032 | inactive: 0.035 | inactive: -0.045 | inactive: -0.026
5 | SYF2 (UniProt O95926) | inactive: -0.023 | inactive: 0 | inactive: -0.036 | inactive: 0.005 | inactive: 0.003 | inactive: -0.008 | inactive: 0.046 | inactive: -0.016 | inactive: 0.04 | inactive: -0.106 | inactive: -0.047 | inactive: 0.092 | inactive: -0.059 | inactive: -0.014 | inactive: -0.059
6 | TAF5L (UniProt O75529) | inactive: 0.033 | inactive: 0.064 | inactive: -0.003 | inactive: 0.098 | inactive: -0.09 | inactive: -0.115 | inactive: -0.104 | inactive: -0.175 |  | inactive: 0.093 | inactive: -0.152 | inactive: -0.152 | inactive: -0.072 | inactive: -0.021 | inactive: 0.082
7 | STX5 (UniProt Q13190) | inactive: 0.05 | inactive: 0.02 | inactive: -0.066 | inactive: -0.01 | inactive: 0.043 | inactive: -0.021 | inactive: -0.029 | inactive: 0.022 | inactive: 0.054 | inactive: -0.066 | inactive: -0.016 | inactive: -0.11 | inactive: 0.01 | inactive: -0.003 | inactive: -0.029
8 | SYK (UniProt P43405) | inactive: 0.02 | inactive: -0.031 | inactive: -0.067 | inactive: 0 | inactive: 0.01 | inactive: -0.077 | inactive: -0.002 | inactive: -0.095 |  | inactive: -0.064 | inactive: 0.135 | inactive: -0.138 | inactive: 0.053 | inactive: 0.016 | inactive: -0.079
9 | TAB3 (UniProt Q8N5C8) | inactive: -0.073 | inactive: -0.019 | inactive: -0.079 | inactive: 0.086 | inactive: 0.006 | inactive: -0.093 | inactive: -0.059 | inactive: 0.028 | inactive: 0.055 | inactive: 0.021 |  | inactive: -0.306 | inactive: -0.035 | inactive: 0.163 | inactive: -0.251
10 | STXBP1 (UniProt P61764) | inactive: 0.014 | inactive: 0.022 | inactive: -0.076 | inactive: -0.033 | inactive: -0.039 | inactive: -0.041 | inactive: -0.041 | inactive: 0.039 | inactive: -0.031 | inactive: 0.01 | inactive: 0.052 | inactive: -0.039 | inactive: 0.041 | inactive: 0.012 | inactive: -0.004
11 | SYNJ2 (UniProt O15056) | inactive: 0.032 | inactive: -0.029 | inactive: -0.037 | inactive: 0.005 | inactive: -0.002 | inactive: -0.039 | inactive: -0.071 | inactive: -0.001 | inactive: 0.033 | inactive: -0.011 | inactive: 0.015 | inactive: -0.206 | inactive: 0.034 | inactive: 0.024 | inactive: 0.046
12 | STX18 (UniProt Q9P2W9) | inactive: 0.031 | inactive: -0.06 | inactive: -0.031 | inactive: 0.01 | inactive: -0.013 | inactive: -0.02 | inactive: -0.006 | inactive: 0.01 | inactive: 0.051 | inactive: -0.268 | inactive: 0 | inactive: -0.114 | inactive: 0.082 | inactive: -0.014 | inactive: -0.091
13 | SUPT16H (UniProt Q9Y5B9) | inactive: -0.014 | inactive: 0.024 | inactive: 0.021 | inactive: -0.004 | inactive: 0.022 | inactive: -0.015 | inactive: 0.026 | inactive: 0.004 | inactive: 0.012 | inactive: -0.014 | inactive: -0.003 | inactive: -0.022 | inactive: 0 | inactive: -0.008 | inactive: -0.012
14 | SYVN1 (UniProt Q86TM6) | inactive: -0.015 | inactive: 0.052 | inactive: 0.031 | inactive: -0.065 | inactive: -0.01 | inactive: -0.029 | inactive: -0.054 | inactive: -0.011 | inactive: -0.002 | inactive: -0.011 | inactive: -0.059 | inactive: 0.086 | inactive: 0.034 | inactive: -0.01 | inactive: -0.009
15 | TACO1 (UniProt Q9BSH4) | inactive: -0.009 | inactive: -0.028 | inactive: -0.042 | inactive: 0.005 | inactive: -0.017 | inactive: 0.096 | inactive: -0.025 | inactive: 0.002 | inactive: 0.038 | inactive: -0.014 | inactive: 0 | inactive: -0.175 | inactive: -0.018 | inactive: 0.05 | inactive: 0.08
16 | SUDS3 (UniProt Q9H7L9) | inactive: -0.049 | inactive: 0.019 | inactive: 0.002 | inactive: -0.02 | inactive: 0.028 | inactive: -0.086 | inactive: -0.016 | inactive: 0.017 | inactive: 0.001 | inactive: 0.034 | inactive: 0.016 | inactive: -0.017 | inactive: -0.017 | inactive: -0.008 | inactive: 0.002
17 | STXBP2 (UniProt Q15833) | inactive: -0.034 | inactive: 0.008 | inactive: -0.027 | inactive: -0.011 | inactive: 0.023 | inactive: -0.057 | inactive: -0.018 | inactive: 0.026 | inactive: 0.007 | inactive: 0.01 | inactive: -0.013 | inactive: -0.14 | inactive: 0.035 | inactive: 0.022 | inactive: 0.021
18 | SULT1A3 isoform 3 (UniProt P0DMM9) | inactive: 0.023 | inactive: -0.005 | inactive: -0.039 | inactive: -0.013 | inactive: 0.28 | inactive: -0.066 | inactive: 0.036 | inactive: 0.039 |  | inactive: 0.05 |  | inactive: -0.267 | inactive: 0.053 | inactive: -0.023 | inactive: -0.041
19 | TACC3 (UniProt C9JWI7) |  |  |  |  |  |  |  |  |  |  | inactive: 0.055 |  |  |  | 
20 | STXBP6 (UniProt Q8NFX7) | inactive: -0.037 | inactive: -0.004 |  | inactive: 0.035 |  | inactive: -0.072 | inactive: 0.013 | inactive: -0.042 |  | inactive: 0.114 |  | inactive: -0.412 | inactive: 0.087 | inactive: -0.04 | 

A second format for part of the listing above.
Row	Target	log2 fold change (nilotinib)	log2 fold change [1]	log2 fold change (dasatinib)	log2 fold change [2]	log2 fold change [3]	log2 fold change (quisinostat)	log2 fold change (tipifarnib)	log2 fold change [4]	log2 fold change [5]	log2 fold change [6]	log2 fold change [7]	log2 fold change (vorinostat)	log2 fold change (silmitasertib)	log2 fold change [8]	log2 fold change (entospletinib)
1	SYAP1 (UniProt Q96A49)	inactive: 0.089	inactive: 0.013	inactive: 0.059	inactive: 0.012	inactive: -0.07	inactive: 0.045	inactive: -0.085	inactive: -0.086	inactive: -0.039	inactive: 0.052	inactive: -0.036	inactive: 0.234	inactive: -0.07	inactive: -0.05	inactive: 0.022
5	SYF2 (UniProt O95926)	inactive: -0.023	inactive: 0	inactive: -0.036	inactive: 0.005	inactive: 0.003	inactive: -0.008	inactive: 0.046	inactive: -0.016	inactive: 0.04	inactive: -0.106	inactive: -0.047	inactive: 0.092	inactive: -0.059	inactive: -0.014	inactive: -0.059
